Assay results from PubChem BioAssay AID330 (DTP/NCI, 2004).
The list is a part of this screen's results and no random one: it is rich in T/C values a quarter to a half above the control, in often repeated tests (any T/C) and in doses without a T/C. Other doses and runs of a compound stand elsewhere. T/C is the treated group as % of the vehicle group. Some doses have a count of surviving animals in place of a T/C: the source files T/C as zero there, which appears to mark a toxic dose or a test without result, not a measured value. Some survivor counts are full or nearly so, which does not show that the dose was tolerated: the source hardly ever lists a survival T/C far under the control, and the zero likely stands for such cases as well. Survivors were counted at the toxicity check, usually on the fifth day, unless a day is given; later deaths do not show. Schedules are NCI's codes, read here as Q, the interval in days (D) or hours (H), X, the number of doses. Some entries were tested several times; the results are listed from low to high. For survival time, the PubChem record calls one and a half times the control and up active, and a quarter to a half above the control has no call in these data; cut-offs in other NCI protocols can differ. Some T/C values carry the count of animals alive at the toxicity check (mostly the fifth day); where none is given, no animal had died by that day.

Tested on: P388 leukemia ip, CD2F1 mice, survival T/C
Test: NCI In Vivo Anticancer Drug Screen. Data for tumor model P388 Leukemia (intraperitoneal) in CD2F1 (CDF1) mice
Settings: T/C endpoint: median survival time, higher T/C = longer survival
[1] = dose: 400.0 mg/kg/injection, schedule: Q01DX009 (ip), vehicle: saline with Tween-80
[2] = dose: 240.0 mg/kg/injection, schedule: Q01DX005 (ip), vehicle: Klucel (hydroxypropylcellulose) (HPC)
[3] = dose: 100.0 mg/kg/injection, schedule: Q04DX002 (ip), vehicle: saline with Tween-80
[4] = dose: 200.0 mg/kg/injection, schedule: Q04DX002 (ip), vehicle: saline with Tween-80
[5] = dose: 400.0 mg/kg/injection, schedule: Q04DX002 (ip), vehicle: saline with Tween-80
[6] = dose: 50.0 mg/kg/injection, schedule: Q01DX009 (ip), vehicle: saline with Tween-80
[7] = dose: 6.25 mg/kg/injection, schedule: Q04DX003 (ip), vehicle: saline
[8] = dose: 100.0 mg/kg/injection, schedule: Q01DX009 (ip), vehicle: saline with Tween-80
[9] = dose: 200.0 mg/kg/injection, schedule: Q01DX009 (ip), vehicle: saline with Tween-80
[10] = dose: 100.0 mg/kg/injection, schedule: Q01DX005 (ip), vehicle: saline
[11] = dose: 200.0 mg/kg/injection, schedule: Q01DX005 (ip), vehicle: saline
[12] = dose: 200.0 mg/kg/injection, schedule: Q01DX005 (ip), vehicle: Klucel (hydroxypropylcellulose) (HPC)
[13] = dose: 240.0 mg/kg/injection, schedule: Q01DX005 (ip), vehicle: saline with Tween-80

## Cc1ccc(S(=O)(=O)N(CCOc2c3occc3cc3ccc(=O)oc23)CCN(CCN(CCOc2c3occc3cc3ccc(=O)oc23)S(=O)(=O)c2ccc(C)cc2)S(=O)(=O)c2ccc(C)cc2)cc1
dose: 400.0 mg/kg/injection, schedule: Q01DX001 (ip), vehicle: saline with Tween-80
  survivor count: 6 of 6

## CCOC(=O)c1ccccc1OP(=O)(N(C)C)N(C)C
[1]
  survivor count: 0 of 6 and 1 of 6

## CC(=O)c1c(C)[nH]c2c1[nH]c1ccccc12
[2]
  survivor count: 5 of 6

## CC(=O)OC1C2CC([CH]1[Hg][Cl])C1C3CCC(C3)C21 (centres undefined)
[3]
  survivor count: 0 of 6
[4]
  survivor count: 0 of 6
[5]
  survivor count: 0 of 6

## Cc1nn(-c2ccccc2)c2c1C(=O)CC(C)O2 (centres undefined)
[2]
  survivor count: 0 of 6

## C[C@@H](O)[C@H](NSc1ccccc1[N+](=O)[O-])C(=O)NCCc1nc(-c2nc(C(=O)NCCCBr)cs2)cs1
dose: 50.0 mg/kg/injection, schedule: Q01DX005 (ip), vehicle: saline with Tween-80
  survivor count: 5 of 5

## O=C1[C@H]2CCC[C@H]2[C@H]2CCC[C@@H]12
[6]
  T/C: 125 % of control
[1]
  survivor count: 3 of 6

## COc1cc2cc[n+](C)c(C)c2cc1OC
dose: 200.0 mg/kg/injection, schedule: Q01DX009 (ip), vehicle: distilled water + Tween-80
  survivor count: 0 of 6 and 1 of 6
dose: 400.0 mg/kg/injection, schedule: Q01DX009 (ip), vehicle: distilled water + Tween-80
  survivor count: 0 of 6

## O=C([O][Hg][C](F)(F)F)C(F)(F)F
[7]
  survivor count: 3 of 6

## CCOC(=O)N1C(=O)C2C3CCC(C2C1=O)C1C2C(=O)N(C(=O)OCC)C(=O)C2C31 (centres undefined)
[6]
  T/C: 127 % of control
[8]
  T/C: 142 % of control
[9]
  survivor count: 5 of 6

## NCC(c1ccccc1)C1CCCCC1 (centres undefined)
[10]
  survivor count: 3 of 6
[11]
  survivor count: 0 of 6

## O=C(OCC1OC(n2cc(C(F)(F)F)c(=O)[nH]c2=O)CC1OC(=O)c1ccc([N+](=O)[O-])cc1)c1ccc([N+](=O)[O-])cc1 (centres undefined)
[12]
  survivor count: 6 of 6

## Cn1c(=O)oc2cc(NC(N)=O)c(Br)cc21
[12]
  survivor count: 6 of 6

## COc1ccc([N+]([O-])=NC#N)cc1
dose: 200.0 mg/kg/injection, schedule: Q04DX003 (ip), vehicle: Klucel (hydroxypropylcellulose) (HPC)
  survivor count: 6 of 6

## CC(C)(C)OOCC1CO1 (centres undefined)
[8]
  T/C: 140 % of control
[9]
  T/C: 127 % of control
[1]
  survivor count: 2 of 6

## C=CCSc1nc2ccc(N3C(=O)C=CC3=O)cc2s1
dose: 50.0 mg/kg/injection, schedule: Q01DX009 (ip), vehicle: Klucel (hydroxypropylcellulose) (HPC)
  survivor count: 5 of 6
dose: 100.0 mg/kg/injection, schedule: Q01DX009 (ip), vehicle: Klucel (hydroxypropylcellulose) (HPC)
  survivor count: 0 of 6
dose: 200.0 mg/kg/injection, schedule: Q01DX009 (ip), vehicle: Klucel (hydroxypropylcellulose) (HPC)
  survivor count: 0 of 6

## NC(CNC(=O)CBr)C(=O)O (centres undefined)
dose: 12.5 mg/kg/injection, schedule: Q01DX005 (ip), vehicle: water
  T/C: 130, 137, 142 % of control
dose: 25.0 mg/kg/injection, schedule: Q01DX005 (ip), vehicle: water
  T/C: 135, 141, 148 % of control
dose: 50.0 mg/kg/injection, schedule: Q01DX005 (ip), vehicle: water
  T/C: 140, 145, 147 % of control [5 of 6 alive]
dose: 100.0 mg/kg/injection, schedule: Q01DX005 (ip), vehicle: water
  survivor count: 2 of 6 and 4 of 6
dose: 200.0 mg/kg/injection, schedule: Q01DX005 (ip), vehicle: water
  survivor count: 0 of 6

## COC1=CC(=O)C2=C(OCO2)C1=O
[3]
  survivor count: 0 of 6
[4]
  survivor count: 0 of 6
[5]
  survivor count: 0 of 6

## COc1cccc(C(O)c2ccncc2)c1OC (centres undefined)
dose: 400.0 mg/kg/injection, schedule: Q01DX009 (ip), vehicle: water
  survivor count: 5 of 6

## COC(=O)C1=C(C(=O)OC)C2(C)OC1c1ccccc12 (centres undefined)
dose: 120.0 mg/kg/injection, schedule: Q01DX005 (ip), vehicle: saline with Tween-80
  survivor count: 0 of 6
[13]
  survivor count: 0 of 6

## CC1(C)C2CCC(C2)C1C(=O)CCN1CCc2ccccc2C1 (centres undefined)
[6]
  survivor count: 6 of 6
[8]
  survivor count: 3 of 6
[9]
  survivor count: 0 of 6

## C=CCn1c(SC)nc2c(c1=O)CCCC2
[13]
  survivor count: 2 of 6

## O=CNC(Cc1ccccc1N(CCCl)CCCl)C(=O)O (centres undefined)
dose: 2.5 mg/kg/injection, schedule: Q04DX003 (ip), vehicle: water
  T/C: 125 % of control
dose: 40.0 mg/kg/injection, schedule: Q04DX003 (ip), vehicle: other
  survivor count: 3 of 6

## O=C(Nc1ccc(C2=NCCCN2)cc1)c1ccc(NC(=O)c2ccc(C3=NCCCN3)cc2)cc1
dose: 3.13 mg/kg/injection, schedule: Q04DX003 (ip), vehicle: saline
  T/C: 130 % of control
dose: 5.0 mg/kg/injection, schedule: Q04DX003 (ip), vehicle: saline with Tween-80
  T/C: 130 % of control
[7]
  T/C: 140 % of control
dose: 10.0 mg/kg/injection, schedule: Q04DX003 (ip), vehicle: saline with Tween-80
  T/C: 130 % of control
dose: 20.0 mg/kg/injection, schedule: Q01DX009 (ip), vehicle: saline
  survivor count: 4 of 6
dose: 25.0 mg/kg/injection, schedule: Q04DX003 (ip), vehicle: saline
  survivor count: 3 of 6
dose: 50.0 mg/kg/injection, schedule: Q04DX003 (ip), vehicle: saline
  survivor count: 0 of 6
dose: 100.0 mg/kg/injection, schedule: Q04DX003 (ip), vehicle: saline
  survivor count: 0 of 6
dose: 200.0 mg/kg/injection, schedule: Q04DX003 (ip), vehicle: saline
  survivor count: 0 of 6
dose: 400.0 mg/kg/injection, schedule: Q04DX003 (ip), vehicle: saline
  survivor count: 0 of 6

## O=C(C#Cc1ccccc1)c1ccccc1
dose: 25.0 mg/kg/injection, schedule: Q01DX009 (ip), vehicle: saline with Tween-80
  T/C: 125 % of control
[6]
  survivor count: 3 of 6
[8]
  survivor count: 0 of 6

## CC[C@]12CN3CCc4c([nH]c5ccccc45)[C@@](C(=O)OC)(c4cc5c(cc4OC)N(C=O)[C@H]4[C@@](O)(C(=O)OC)[C@H](OC(C)=O)[C@]6(CC)C=CCN7CC[C@]54[C@@H]76)C[C@H](C3)[C@H]1O2
dose: 1.0 mg/kg/injection, schedule: Q01DX009 (ip), vehicle: saline
  T/C: 142 % of control
dose: 2.0 mg/kg/injection, schedule: Q01DX009 (ip), vehicle: saline
  T/C: 131 and 141 % of control
dose: 4.0 mg/kg/injection, schedule: Q01DX009 (ip), vehicle: saline
  T/C: 148 % of control

## CN(C)C1C(=O)C(C(N)=O)=C(O)C2(O)C(=O)C3=C(O)c4c(O)cccc4C(C)(O)C3CC12.[Cl][Sb]([Cl])[Cl] (centres undefined)
dose: 200.0 mg/kg/injection, schedule: Q01DX005 (ip), vehicle: saline with Tween-80
  survivor count: 0 of 6

## c1ccc2[nH]c(N=Nc3cccc4ccccc34)cc2c1
dose: 50.0 mg/kg/injection, schedule: Q01DX009 (ip), vehicle: other
  survivor count: 6 of 6
[9]
  T/C: 125 % of control
dose: 400.0 mg/kg/injection, schedule: Q01DX009 (ip), vehicle: other
  survivor count: 4 of 6 and 5 of 6

## C/C(=N\NC(N)=Nc1ccc(Cl)cc1)c1ccc(Cl)c(Cl)c1
[4]
  survivor count: 0 of 6
[5]
  survivor count: 1 of 6

## CCCCN(CCCC)C(=N)c1c2ccccc2nc2ccccc12
dose: 50.0 mg/kg/injection, schedule: Q01DX005 (ip), vehicle: saline
  survivor count: 1 of 5
[10]
  survivor count: 0 of 5
[11]
  survivor count: 0 of 5
